From ChEMBL document CHEMBL3988442, “University of Dundee, Small-Polar-MMV Screening Library” (2021).

Sequences of proteins named here, by UniProt entry; tags and fusion partners are left off. Residues count along the entry.
UniProt A4I591, 1-473: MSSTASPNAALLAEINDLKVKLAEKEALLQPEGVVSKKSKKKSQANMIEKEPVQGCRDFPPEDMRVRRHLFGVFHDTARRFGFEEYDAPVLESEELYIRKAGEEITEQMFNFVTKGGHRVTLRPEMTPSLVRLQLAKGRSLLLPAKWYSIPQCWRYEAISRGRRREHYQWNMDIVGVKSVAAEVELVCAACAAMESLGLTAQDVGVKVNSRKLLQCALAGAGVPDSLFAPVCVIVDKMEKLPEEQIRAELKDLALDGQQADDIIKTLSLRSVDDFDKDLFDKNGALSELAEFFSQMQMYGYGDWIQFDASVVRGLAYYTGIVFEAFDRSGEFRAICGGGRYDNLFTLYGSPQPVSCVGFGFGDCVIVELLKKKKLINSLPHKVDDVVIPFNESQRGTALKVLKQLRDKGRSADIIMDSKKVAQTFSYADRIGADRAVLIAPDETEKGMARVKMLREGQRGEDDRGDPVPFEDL
UniProt Q8IDJ8, 1-583: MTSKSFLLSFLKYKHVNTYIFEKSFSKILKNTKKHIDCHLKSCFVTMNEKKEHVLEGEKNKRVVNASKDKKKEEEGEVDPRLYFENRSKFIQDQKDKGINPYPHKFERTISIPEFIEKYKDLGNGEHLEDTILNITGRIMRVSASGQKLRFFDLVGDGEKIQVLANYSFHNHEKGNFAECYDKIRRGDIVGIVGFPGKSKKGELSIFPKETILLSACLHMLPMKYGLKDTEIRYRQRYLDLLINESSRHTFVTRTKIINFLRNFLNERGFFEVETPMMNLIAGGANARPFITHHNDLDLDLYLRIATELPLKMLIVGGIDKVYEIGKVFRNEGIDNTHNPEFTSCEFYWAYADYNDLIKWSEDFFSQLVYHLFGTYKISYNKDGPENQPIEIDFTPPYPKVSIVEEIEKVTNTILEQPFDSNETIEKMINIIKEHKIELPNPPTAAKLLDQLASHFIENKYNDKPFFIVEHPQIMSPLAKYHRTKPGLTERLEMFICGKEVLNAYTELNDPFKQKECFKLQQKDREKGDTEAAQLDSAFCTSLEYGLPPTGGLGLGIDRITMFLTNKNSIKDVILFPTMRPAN

LiHisRS: 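Enzyme assay of histidyl-tRNA synthetase; the read-out is not stated. Target: Histidine-tRNA ligase, Leishmania infantum (UniProt A4I591). Concentration: 30 µM. Higher reads as stronger inhibition (inferred: compounds with an IC50 in retests scored well above the rest). The assay is labelled LdHisRS but filed under L. infantum. Of about 69,000 compounds tested this way, about 410 (0.6%) reached 50% or more in at least one test.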
PfKRS1: 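Lysine-tRNA ligase, Plasmodium falciparum 3D7 (UniProt Q8IDJ8). Enzyme assay of the cytosolic lysyl-tRNA synthetase in 384-well plates, read by luminescence. Compounds at 30 µM. Direction is inferred from only a few compounds that gave an IC50; most scored high, so higher reads as stronger inhibition. About 69,000 compounds were tested under these conditions; 0.071% (about 49) showed 50% or more at least once.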

The filed quantity is “Percent Effect” (%).
The record does not define 0% and 100%; most values in the screen are far below 50% and negative numbers occur (in some assays of this library far below -100).
Compounds were drawn at random from those tested, without regard to their results.

{"compound": "O=C(N[C@@H]1CCC[C@@H](N2CCCC2)[C@@H]1O)c1cnn2cccnc12", "LiHisRS": 20, "PfKRS1": -2.158}
{"compound": "Cc1csc(C(=O)N2CCCC(c3[nH]ncc3S(C)(=O)=O)C2)c1", "stereo": "stereo not shown", "LiHisRS": 21.74, "PfKRS1": 2.633}
{"compound": "Cc1sc(Br)cc1S(=O)(=O)NCc1ccccn1", "LiHisRS": 12.7, "PfKRS1": 2.015}
{"compound": "CCc1noc(C(C)N2CCc3c(ncn3C3CC3)C2)n1", "stereo": "stereo not shown", "LiHisRS": 3.333, "PfKRS1": -9.013}
{"compound": "Cc1ccc(CC(=O)N2CCOC(c3ncc(CN(C)C)[nH]3)C2)s1", "stereo": "stereo not shown", "LiHisRS": 21.43, "PfKRS1": -0.3574}
{"compound": "CCN1CCC(CC(=O)NCc2cc(C)nn2C)CC1", "LiHisRS": 18.25, "PfKRS1": 0.06093}
{"compound": "O=C(NC[C@H]1OC[C@@H]2CCN(C(=O)c3ccco3)C[C@@H]21)C1CC1", "LiHisRS": 16.98, "PfKRS1": 3.323}
{"compound": "CCO[C@@H]1C[C@H]2CN(S(=O)(=O)c3cccs3)CCN2C1", "LiHisRS": 7.895, "PfKRS1": 4.495}
{"compound": "CN(C)c1cc(C(=O)NCC2(c3cccc(F)c3)CCOCC2)ccn1", "LiHisRS": 14.29, "PfKRS1": 9.031}
{"compound": "Cc1ccc(S(=O)(=O)NC(=O)c2c(C)noc2C(C)C)cc1C", "LiHisRS": 20, "PfKRS1": 5.165}
{"compound": "c1cc(CCN2CCC(c3n[nH]c(C4CC4)n3)CC2)ccn1", "LiHisRS": -2.632, "PfKRS1": 4.106}
{"compound": "CN(C)C(c1ccccn1)[C@H]1CC[C@H](CNC(=O)CC2CCCC2)CC1", "stereo": "stereo partly shown", "LiHisRS": 11.35, "PfKRS1": 0.5579}
{"compound": "CN1CCC(NC(=O)c2cc(Br)cc(Cl)c2O)C1=O", "stereo": "stereo not shown", "LiHisRS": 20, "PfKRS1": 4.548}
{"compound": "Cn1ccnc1CC1CCCN(Cc2noc(C3CC3)n2)C1", "stereo": "stereo not shown", "LiHisRS": 3.39, "PfKRS1": -0.3289}
{"compound": "Cc1cc(-c2ccc(=O)n(CCNC(=O)C3CCC3)n2)c(C)o1", "LiHisRS": 6.711, "PfKRS1": -3.587}
{"compound": "Cc1nc(N2CCC(C(O)c3nccn3C)CC2)c2c(C)noc2n1", "stereo": "stereo not shown", "LiHisRS": -6.383, "PfKRS1": -0.3888}
{"compound": "CCOCC(=O)N1CC(=O)Nc2cc(Br)ccc21", "LiHisRS": 13.7, "PfKRS1": 3.111}
{"compound": "O=C1[C@@H]2CCN(C3CCOCC3)C[C@@H]2OCCN1Cc1cccnc1", "LiHisRS": 5.882, "PfKRS1": -1.556}
{"compound": "Cc1ccc(CNC(=O)CN2CCN(CC(O)C3CC3)CC2)cc1", "stereo": "stereo not shown", "LiHisRS": 24.27, "PfKRS1": 7.584}
{"compound": "Cc1cnc(N2CCC3(CCC(C(=O)NC(C)C)OC3)CC2)nc1", "stereo": "stereo not shown", "LiHisRS": 17.09, "PfKRS1": 3.682}
{"compound": "Cc1cc(C(=O)N2C[C@@H]3CCCO[C@@H]3[C@H](N(C)C(C)C)C2)c(C)[nH]1", "LiHisRS": 11.5, "PfKRS1": 2.402}
{"compound": "O=C(O)C[C@@H]1CCN(C(=O)C2CCCC2)C[C@@H]1CCN1CCCCC1", "LiHisRS": 30.56, "PfKRS1": 8.965}
{"compound": "CCC(=O)NCC(=O)Nc1ncc(I)cc1C", "LiHisRS": 27.4, "PfKRS1": -1.42}
{"compound": "OCCN1CC2(CCN(CC3CC3)CC2)c2ccccc21", "LiHisRS": 32.76, "PfKRS1": 11.09}
{"compound": "COc1cc(C)nc(N2CCN(C(C)c3nc(C4CC4)no3)CC2)n1", "stereo": "stereo not shown", "LiHisRS": 15.83, "PfKRS1": 2.534}
{"compound": "Cc1cccc2[nH]c(C3CCN(C(=O)c4ccc[nH]4)CC3)nc12", "LiHisRS": 16.8, "PfKRS1": 9.303}
{"compound": "Cc1cccc(NC(=O)[C@@H]2CCCN2Cc2cnc3ccccn23)n1", "LiHisRS": -8.036, "PfKRS1": -0.5947}
{"compound": "CCOc1nnc(CN2CCCC(c3nc4ccccc4[nH]3)C2)s1", "stereo": "stereo not shown", "LiHisRS": 25, "PfKRS1": 6.061}
{"compound": "Cc1nn(C)c(N(C)C)c1CNCc1cccnc1N(C)C", "LiHisRS": 10.53, "PfKRS1": -3.058}
{"compound": "O=S(=O)(c1ccccc1)N1CCCC(c2nccs2)C1", "stereo": "stereo not shown", "LiHisRS": 11.58, "PfKRS1": 3.74}
{"compound": "CC(C)c1nc(C2CCCN2C(=O)c2ccc3nncn3c2)no1", "stereo": "stereo not shown", "LiHisRS": 21.88, "PfKRS1": 7.323}
{"compound": "CCOc1ccccc1CCNC(=O)NCC(O)c1cccs1", "stereo": "stereo not shown", "LiHisRS": 9.211, "PfKRS1": 4.22}
{"compound": "COCC1CN(Cc2ccoc2)Cc2cn(CC3CCOCC3)nc21", "stereo": "stereo not shown", "LiHisRS": 5.263, "PfKRS1": -1.483}
{"compound": "COc1ccccc1CN1CCC(Cc2cnc(CN(C)C)cn2)CC1", "LiHisRS": 14.29, "PfKRS1": -0.2032}
{"compound": "Cc1n[nH]c(CCC(=O)N2CCOC(Cc3ccccc3)C2)c1C", "stereo": "stereo not shown", "LiHisRS": -7.895, "PfKRS1": 5.936}
{"compound": "Cc1cccn2cc(CN3CCCC(c4ccn[nH]4)C3)nc12", "stereo": "stereo not shown", "LiHisRS": 25.71, "PfKRS1": 1.892}
{"compound": "Cc1cn(CC(=O)NCC(=O)NC2CC2)c2ccccc12", "LiHisRS": 12.12, "PfKRS1": 2.319}
{"compound": "Cc1ccc2[nH]nc(C(=O)NCC3CCN(Cc4c[nH]cn4)C3)c2c1", "stereo": "stereo not shown", "LiHisRS": 19.66, "PfKRS1": -1.626}
{"compound": "O=c1c2cnc(N3CCCCC3)nc2ccn1Cc1ccco1", "LiHisRS": 16.07, "PfKRS1": 10.92}
{"compound": "NC(=O)NCC(=O)N1C[C@H]2CC[C@@H]1CN(C1Cc3ccccc3C1)C2", "LiHisRS": 30.19, "PfKRS1": 11.21}
{"compound": "Cn1cc(CN(C/C=C/c2ccccc2)C2CC2)cn1", "LiHisRS": 27.71, "PfKRS1": 3.848}
{"compound": "Cc1ccc2c(c1)OC(C)CN2C(=O)c1c[nH]c(C)cc1=O", "stereo": "stereo not shown", "LiHisRS": 15.96, "PfKRS1": 1.643}
{"compound": "Cc1nc(NC2CCCC2)cc(C2CCN2C(=O)c2ccccc2)n1", "stereo": "stereo not shown", "LiHisRS": 16.67, "PfKRS1": 4.891}

For reference, 4 entries once more:

{"compound": "CCc1noc(C(C)N2CCc3c(ncn3C3CC3)C2)n1", "stereo": "stereo not shown", "LiHisRS": 3.333, "PfKRS1": -9.013}
{"compound": "Cc1cn(CC(=O)NCC(=O)NC2CC2)c2ccccc12", "LiHisRS": 12.12, "PfKRS1": 2.319}
{"compound": "Cc1cccn2cc(CN3CCCC(c4ccn[nH]4)C3)nc12", "stereo": "stereo not shown", "LiHisRS": 25.71, "PfKRS1": 1.892}
{"compound": "Cc1ccc(CC(=O)N2CCOC(c3ncc(CN(C)C)[nH]3)C2)s1", "stereo": "stereo not shown", "LiHisRS": 21.43, "PfKRS1": -0.3574}